These are yes or no findings as the source states them, for the method shown. Binding seen in cells or lysates may run through a third protein. Some entries that bind do so weakly or less than the wild type. For some of these results: Where a sequence is shown, tags or fusion partners need not be part of it.
Legend:
Experiment in all cases: co-IP
[1] = target: T1, FLAG-tagged MACIR wt (UniProt Q96GV9)
T1 sequence: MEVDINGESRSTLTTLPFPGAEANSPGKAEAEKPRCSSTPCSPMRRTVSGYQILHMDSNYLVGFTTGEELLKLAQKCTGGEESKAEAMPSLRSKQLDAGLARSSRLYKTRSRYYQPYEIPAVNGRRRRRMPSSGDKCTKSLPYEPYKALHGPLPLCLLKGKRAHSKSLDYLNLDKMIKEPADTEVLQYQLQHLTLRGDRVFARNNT

The chains behind the UniProt entries cited, without tags or fusion partners.
UniProt A6NIH7: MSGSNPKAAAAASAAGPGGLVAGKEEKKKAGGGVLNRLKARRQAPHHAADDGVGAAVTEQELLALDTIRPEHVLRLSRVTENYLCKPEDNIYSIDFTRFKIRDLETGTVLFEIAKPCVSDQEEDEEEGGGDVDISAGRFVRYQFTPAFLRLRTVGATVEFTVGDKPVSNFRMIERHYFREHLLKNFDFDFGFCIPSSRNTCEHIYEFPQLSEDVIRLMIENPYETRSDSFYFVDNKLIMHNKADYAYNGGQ
UniProt Q92973: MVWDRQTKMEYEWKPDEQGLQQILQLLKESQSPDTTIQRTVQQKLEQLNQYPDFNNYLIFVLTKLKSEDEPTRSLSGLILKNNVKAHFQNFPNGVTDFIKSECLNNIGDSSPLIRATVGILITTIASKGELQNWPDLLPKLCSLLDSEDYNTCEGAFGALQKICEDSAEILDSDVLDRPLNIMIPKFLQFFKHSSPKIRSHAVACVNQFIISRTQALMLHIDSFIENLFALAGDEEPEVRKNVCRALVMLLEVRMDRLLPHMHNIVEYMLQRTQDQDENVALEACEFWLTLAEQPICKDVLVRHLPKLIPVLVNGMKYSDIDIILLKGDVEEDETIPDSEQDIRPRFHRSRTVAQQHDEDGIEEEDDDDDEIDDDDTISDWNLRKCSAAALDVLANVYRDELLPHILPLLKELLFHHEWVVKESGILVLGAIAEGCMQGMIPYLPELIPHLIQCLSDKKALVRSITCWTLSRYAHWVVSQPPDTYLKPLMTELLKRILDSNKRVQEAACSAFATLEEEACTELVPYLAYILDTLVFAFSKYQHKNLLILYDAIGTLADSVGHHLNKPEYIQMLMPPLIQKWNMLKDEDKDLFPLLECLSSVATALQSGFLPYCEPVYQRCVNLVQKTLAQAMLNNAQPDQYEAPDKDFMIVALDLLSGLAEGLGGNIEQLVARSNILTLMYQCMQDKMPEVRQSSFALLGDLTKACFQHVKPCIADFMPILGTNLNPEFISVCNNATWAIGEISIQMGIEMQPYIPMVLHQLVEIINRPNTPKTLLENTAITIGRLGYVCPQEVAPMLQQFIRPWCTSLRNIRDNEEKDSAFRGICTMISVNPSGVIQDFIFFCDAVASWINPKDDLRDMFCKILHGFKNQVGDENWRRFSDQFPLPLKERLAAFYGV

[2] = target: FLAG-tagged MACIR P116A/Y117Q (UniProt Q96GV9)
[3] = target: FLAG-tagged MACIR P142A/Y143Q (UniProt Q96GV9)

Row | Substance | binding [1] | binding [2] | binding [3]
1 | UNC119 homolog B (from UniProt A6NIH7 1-251) | binds | – | –
2 | nuclear transport receptor TNPO1 (from UniProt Q92973 1-898) | binds | no binding | binds

From doi:10.1101/841999
